{"source": "patent US9802985B2", "about": "(APEPTICO FORSCHUNG UND E[…], priority 2012, dated 2017)", "assay": "peptide synthesis", "settings": "whole synthesis", "note": "Where a sequence shows no end group, the ends are not given."}
{"sequence": "CGQREAPAGAAAKPWYC", "values": [{"measurement": "final HPLC purity", "result": 95, "unit": "%"}]}
